Assay results taken from patent publication US7615527B2, “Peptides which modulate blood coagulation and methods of use thereof” (Oregon Health & Science University, priority 2001, dated 2009).

Target: α-thrombin (Homo sapiens, UniProt P00734)
Test: Competitive binding assay: α-thrombin binding to fluoresceinated γ′ 408-427 peptide
Conditions: 2 nM fluoresceinated peptide with 2 μM α-thrombin
Description: Proteins, Peptides, and DNA Aptamers. Human α-thrombin was generously provided by Dr. John Fenton, II (New York State Department of Health, Albany, N.Y.) and Dr. Walter Kisiel (University of New Mexico, Albuquerque, N. Mex.). Human γ-thrombin was obtained from Haematologic Technologies, Inc. (Essex Junction, Vt.). Tyrosine-phosphorylated derivatives of peptides corresponding to the γ′ chain carboxyl terminus, […] (SEQ ID NO: 11), were obtained from Research Genetics, Inc. (Huntsville, Ala.) and GeneMed Synthesis, Inc. (South San Francisco, Calif.). The peptides were purified to >95% purity by HPLC, and their molecular weights were verified by mass spectrometry. Tyrosine-sulfated, amino-terminal acetylated hirudin peptide 53-65 was obtained from Bachem, Inc. (Torrance, Calif.) and tyrosine-sulfated hirudin peptide 54-65 was obtained from Sigma (St. Louis, Mo.). Single-stranded DNA aptamers 5′-GGT-TGG-TGT-GGT-TGG-3′ (SEQ ID NO: 5), referred to as HD1, and 5′-AGT-CCG-TGG-TAG-GGC-AGG-TTG-GGG-TGA-CT-3′ (SEQ ID NO: 6), referred to as HD22, were generously provided by Dr. Jeffrey I. Weitz (McMaster University, Hamilton, ONT, Canada). […] The amount of fibrinogen secreted during the labeling was determined using an ELISA described previously (10). […] To quantitate the binding of thrombin to the γ′ chain carboxyl terminus, 50 nM […]-Y (PO3)-DSL-Y (PO3)—PEDDL (SEQ ID NO: 10) peptide (Research Genetics), corresponding to the carboxyl terminal twenty amino acids of the γ′ chain, was labeled for 1 hour at 37° C. with a 5-fold molar excess of fluorescein succinimidyl ester (PanVera) in 100 mM potassium phosphate, pH 7.0 as per the manufacturer's protocol. […] Fluorescence polarization was measured following excitation at 488 nm and emission at 535 nm. […]
Competitive binding assays were performed by incubating 2 nM fluoresceinated peptide with 2 μM α-thrombin in the presence of the indicated concentrations of competing ligand. Fluorescence polarization was measured following excitation at 488 nm and emission at 535 nm.

Row | Compound | Inhibition of α-thrombin binding to fluoresceinated γ′ 408-427 peptide (in words) | Ki, competition for α-thrombin binding to fluoresceinated γ′ 408-427 peptide
1 | CC(C)C[C@H](NC(=O)[C@H](CC(=O)O)NC(=O)[C@H](CC(=O)O)NC(=O)[C@H](CCC(=O)O)NC(=O)[C@@H]1CCCN1C(=O)[C@H](Cc1ccc(O)cc1)NC(=O)[C@H](CC(C)C)NC(=O)[C@H](CO)NC(=O)[C@H](CC(=O)O)NC(=O)[C@H](Cc1ccc(OP(=O)(O)O)cc1)NC(=O)[C@H](CCC(=O)O)NC(=O)[C@@H](NC(=O)[C@H](CCC(=O)O)NC(=O)[C@H](C)NC(=O)[C@@H]1CCCN1C(=O)[C@H](Cc1cnc[nH]1)NC(=O)[C@H](CCC(=O)O)NC(=O)[C@@H]1CCCN1C(=O)[C@H](CCCNC(=N)N)NC(=O)[C@@H](N)C(C)C)[C@@H](C)O)C(=O)O | slightly more effective than the peptide containing γ′Y(PO3)422 | not possible to obtain a statistically significant Ki value
2 | CC(C)C[C@H](NC(=O)[C@H](CC(=O)O)NC(=O)[C@H](CC(=O)O)NC(=O)[C@H](CCC(=O)O)NC(=O)[C@@H]1CCCN1C(=O)[C@H](Cc1ccc(OP(=O)(O)O)cc1)NC(=O)[C@H](CC(C)C)NC(=O)[C@H](CO)NC(=O)[C@H](CC(=O)O)NC(=O)[C@H](Cc1ccc(O)cc1)NC(=O)[C@H](CCC(=O)O)NC(=O)[C@@H](NC(=O)[C@H](CCC(=O)O)NC(=O)[C@H](C)NC(=O)[C@@H]1CCCN1C(=O)[C@H](Cc1cnc[nH]1)NC(=O)[C@H](CCC(=O)O)NC(=O)[C@@H]1CCCN1C(=O)[C@H](CCCNC(=N)N)NC(=O)[C@@H](N)C(C)C)[C@@H](C)O)C(=O)O |  | not possible to obtain a statistically significant Ki value

The match of structure and compound is tentative.
